Reference: publication PMC8079276
These are yes or no findings as the source states them, for the method shown. Binding seen in cells or lysates may run through a third protein. These calls come from enrichment with a bait or labelling near it, and not all partners need be listed. Sequences can lack the tags named with a protein.

B1: Zfp644 (protein, UniProt E9QA22 1-1323)
chain: MRLFLHQDVNKPKFRLKVLNDLANNMDDLKINTDITGAKEELQDDNNFISEKDSGVHKPKDCQTSFQKNSSLTRSEELSEDQSEQALSGGQSALFLPASTPAVPTENFPLPTGAVVNGPVSCSSSTKTSNMNEGSVSLTPGQPADQLAAESCSTLKAAADHQLSTPQKASQHQVLFLLSDVAHAKNPTHSIKKVPTSALVGCDVQNSVGNNMKSESTLLSQAEVGQGDASTVVRDDCVSALAVISSGTDEFRSENDTNWDPQKEFIQFLMTSEETVDKPPAHSKVVGLEKKRKRKMDVSKITRYTEDCYSDSGRAPGKSKILQVDFLGQNEEMQAIDSQNYTLSKVKPESAGGDLESVDTFQHLVYNSDKCGEDNSPVHTRTLISNTLKKKCEESDPESPVAFSTEEPSFYPCTKCNVNFREKKHLHRHMMYHLDGNSHFRHLNVPRPYACRECGRTFRDRNSLLKHMIIHQERRQKLMEEIRELKELQDEGRSARLQCPQCVFGTNCPKTFVQHAKTHEKDKRYYCCEECNFMAVTENELECHRGIAHGAAVKCPVVSSEVTQRKTQKKTSVKDSVIGSSKKPATYLCKMCPFTTSARSILKKHTEYLHSSACVDSFGNPLGLDKRKNDSLEESVDVDSTKSLAKQQPSTFPKNSALKQDAKRTFGSSSQSSNFSKFHKRPHRIQKARKSIAQSGVNSCSQNKSPHKNVMVKSSTDQQPKYFHQAPREKPNARADSSYLYRHKYNNYRTIRKSGDSYPLPFKKEVNSLNSLHLFSSSNSHNFISDPHNADTKRPENEKDHKRVAVKRVAKASKKESSAGEDLDSYPDFLHKMTVVVLQKLHSDKKDSYETEDDSSWDNVELGDYTTQAMEEEAYSDLSQEHVNLLPLFKSKIEGQGPGDSAALSYDQNDGFYFEYYEDGGTNSFLQDIHDPQHLENPETPLSKHSSVFHWTDLSLEKKSCPYCPATFETGVGLSNHVRGHLHRAGLSYEARHVVSPEQIATSDKMQHFKRTGNGTPVKRVRKAIEKSETTSEHTCQLCGGWFDTKIGLSNHVRGHLKRLGKTKWDAHKSPICVLNEMMQNEEKYEKILKALNSRRIIPRPFVAQKLSSGDDFLSHNVLPLDEYHNGLKTEALSVSASEEEGLHFLSECGERKPELPSGRKNQSLTLIELLKSRRLGEERNSAVSPHKTHNQTARKRFVQKCVLPLNEDSPLIYQPQKMDLTVHSAIDCKQKKSRSRSGSKKKMLTLPHGADEVYILRCRFCGLVFRGPLSVQEDWIKHLQRHIVNANLPRTGAGMVEVTSLLKKPASITETSFSLLMAEAAS
B2: Acetyl-CoA acetyltransferase, mitochondrial precursor (protein, UniProt Q8QZT1 31-424)
chain: ASKPTLNEVVIVSAIRTPIGSFLGSLASQPATKLGTAAIQGAIEKAGIPKEEVKEVYMGNVIQGGEGQAPTRQATLGAGLPISTPCTTVNKVCASGMKAIMMASQSLMCGHQDVMVAGGMESMSNVPYVMSRGATPYGGVKLEDLIVKDGLTDVYNKIHMGNCAENTAKKMNISRQEQDTYALSSYTRSKEAWDAGKFASEITPITISVKGKPDVVVKEDEEYKRVDFSKVPKLKTVFQKENGTITAANASTLNDGAAALVLMTAEAAQRLNVKPLARIAAFADAAVDPIDFPLAPAYAVPKVLKYAGLKKEDIAMWEVNEAFSVVVLANIKMLEIDPQKVNIHGGAVSLGHPIGMSGARIVVHMAHALKPGEFGLASICNGGGGASALLIEKL
B3: Pdlim2 (protein, UniProt Q8R1G6 1-349)
chain: MALTVDVAGPAPWGFRISGGRDFHTPIIVTKVTERGKAEAADLRPGDIIVAINGQSAENMLHAEAQSKIRQSASPLRLQLDRSQTASPGQTNGEGSLEVLATRFQGSLRTHRDSQSSQRSACFSPVSLSPRPCSPFSTPPPTSPVALSKEDMIGCSFQSLTHSPGLAAAHHLTYPGHPTSQQAGHSSPSDSAVRVLLHSPGRPSSPRFSSLDLEEDSEVFKMLQENRQGRAAPRQSSSFRLLQEALEAEERGGTPAFVPSSLSSQASLPTSRALATPPKLHTCEKCSVNISNQAVRIQEGRYRHPGCYTCADCGLNLKMRGHFWVGNELYCEKHARQRYSMPGTLNSRA
B4: Zfp281 (protein, UniProt Q99LI5 1-893)
chain: MKIGSGFLSGGGGPSSSGGSGSGGSSGSASGGSGGGRRAEMEPTFPQSMVMFNHRLPPVTSFTRPAGTAAPPPQCVLSSSTSAAPAAEPPPPPAPDMTFKKEPAASAAAFPSQRTSWGFLQSLVSIKQEKPADPEEQPSHHHHHHHHYGGLFAGAEERSPGLGGGEGGSHGVIQDLSLLHQHAQQQPAQHHRDVLLSSGSRTDEHGNQEPKQDANVKKAKRPKPESQGIKAKRKPSASSKPLVGEGEGAVLSPSQKPHICDHCSAAFRSSYHLRRHVLIHTGERPFQCSQCSMGFIQKYLLQRHEKIHSREKPFGCDQCSMKFIQKYHMERHKRTHSGEKPYKCDTCQQYFSRTDRLLKHRRTCGEAIAKGAASAEPGSSNHNSMGNLAVLSQGNTSSSRRKSKSKSIAIENKEHKTGKTNESQMSNNINMQSYSVEMPTVSTSGSIIGTGIDELQKRVPKLIFKKGSRKNADKSYLNFVSPLPDVVGQKSLSGKPGGSLGIVSNNSVETISLLQSTSGKQGPISSNYDDAMQFSKKRRYLPTASSNSAFSINVGHMVSQQSVIQSAGVSVLDNEAPLSLIDSSALNAEIKSCHDKSGIPDEVLQSILDQYSGKSETQKEDPFNLTEPRVDLHTSGEHSELVQEENLSPGTQTPSNDKTSMLQEYSKYLQQAFEKSTNAGFTLGHGFQFVSLSSPLHNHTLFPEKQIYTTSPLECGFGQSVTSVLPSSLPKPPFGMLFGSQPGLYLSALDATHQQLTPSQELDDLIDSQKNLETSSAFQSSSQKLTSQKEQQKNLESSTSFQIPSQELASQIDPQKDIEPRTTYQIENFAQAFGSQFKSGSRVPMTFITNSNGEVDHRVRTSVSDFSGYTNMMSDVSEPCSTRVKTPTSQSYR
B5: Pmpcb (protein, UniProt Q9CXT8 46-489)
chain: QAAPQVVLNVPETQVTCLENGLRVASENSGLSTCTVGLWIDAGSRYENEKNNGTAHFLEHMAFKGTKKRSQLDLELEIENMGAHLNAYTSREQTVYYAKAFSRDLPRAVEILADIIQNSTLGEAEIERERGVILREMQEVETNLQEVVFDYLHATAYQNTALGRTILGPTENIKSINRKDLVDYITTHYKGPRIVLAAAGGVCHNELLELAKFHFGDSLCSHKGAIPALPPCKFTGSEIRVRDDKMPLAHLAIAVEAVGWAHPDTICLMVANTLIGNWDRSFGGGMNLSSKLAQLTCHGNLCHSFQSFNTSYTDTGLWGLYMVCEQATVADMLHVVQNEWKRLCTDVTESEVARAKNLLKTNMLLQLDGSTPICEDIGRQMLCYNRRIPIPELEARIDAVDAETVRRVCTKYIHDKSPAIAALGPIERLPDFNQICSNMRWIRD
B6: Pls3 (protein, UniProt Q99K51 1-630)
chain: MDEMATTQISKDELDELKEAFAKVDLNSNGFICDYELHELFKEANMPLPGYKVREIIQKLMVDGDRNKDGKISFNEFVYIFQEVKSSDIAKTFRKAINRKEGICALGGTSELSSEGTQHSYSEEEKYAFVNWINKALENDPDCRHVIPMNPNTDDLFKAVGDGIVLCKMINLSVPDTIDERAINKKKLTPFIIQENLNLALNSASAIGCHVVNIGAEDLRAGKPHLVLGLLWQIIKIGLFADIELSRNEALAALLRDGETLEELMKLSPEELLLRWANFHLENSGWQKINNFSADIKDSKAYFHLLNQIAPKGQKEGEPRIDINMSGFNETDDLKRAESMLQQADKLGCRQFVTPADVVSGNPKLNLAFVANLFNKYPALTKPENQDIDWTLLEGETREERTFRNWMNSLGVNPHVNHLYADLQDALVILQLYERIKVPVDWSKVNKPPYPKLGANMKKLENCNYAVELGKNPAKFSLVGIGGQDLNDGNPTLTLAVVWQLMRRYTLNVLEDLGEGQKANDDIIVNWVNRTLSEAGKSTSIQSFKDKTISSSLAVVDLIDAIQPGCINYDLVKSGNLTEDDKHNNAKYAVSMARRIGARVYALPEDLVEVKPKMVMTVFACLMGRGMKRV
B7: Ppm1g (protein, UniProt Q61074 1-542)
chain: MGAYLSQPNTVKCSGDGVGAPRLPLPYGFSAMQGWRVSMEDAHNCIPELDNETAMFSVYDGHGGEEVALYCAKYLPDIIKDQKAYKEGKLQKALQDAFLAIDAKLTTEEVIKELAQIAGRPTEDEDDKDKVADEDDVDNEEAALLHEEATMTIEELLTRYGQNCQKVPPHTKSGIGTGDEPGPQGLNGEAGPEDPSRETPSQENGPTAKGHTGFSSNSEHGTEAGQISEPGTATGEAGPSCSSASDKLPRVAKSKFFEDSEDESDEVEEEEDDSEECSEDEDGYSSEEAENEEDEDDTEEAEEDDDEEMMVPGMEGKEEPGSDSGTTAVVALIRGKQLIVANAGDSRCVVSEAGKALDMSYDHKPEDEVELARIKNAGGKVTMDGRVNGGLNLSRAIGDHFYKRNKNLPPQEQMISALPDIKVLTLTDDHEFMVIACDGIWNVMSSQEVVDFIQSKISQRDENGELRLLSSIVEELLDQCLAPDTSGDGTGCDNMTCIIICFKPRNTVELQAESGKRKLEEALSTEGAEDTGNSDKKKAKRD

biological target: T1, UDP-N-acetylglucosamine-peptide N-acetylglucosaminyltransferase (mouse (endogenous in MEFs)) (UniProt Q8CGY8); assay: affinity purification with mass spectrometry; endogenous OGT immunoprecipitated (antibody AL24, protein G magnetic beads, TCL buffer: 50 mM Tris HCl, 150 mM NaCl, pH 7.5, 1% NP-40, 2 mM EDTA) from a 1:1:1 mix of SILAC-labelled lysates of WT, H2O2-treated (2.5 mM, 1.5 h) and OGT-null MEFs, precleared with rabbit IgG; in-gel trypsin digestion, LC-MS/MS; interactor if log2 WT or H2O2/null >=1 in 2 or more replicates
T1 sequence: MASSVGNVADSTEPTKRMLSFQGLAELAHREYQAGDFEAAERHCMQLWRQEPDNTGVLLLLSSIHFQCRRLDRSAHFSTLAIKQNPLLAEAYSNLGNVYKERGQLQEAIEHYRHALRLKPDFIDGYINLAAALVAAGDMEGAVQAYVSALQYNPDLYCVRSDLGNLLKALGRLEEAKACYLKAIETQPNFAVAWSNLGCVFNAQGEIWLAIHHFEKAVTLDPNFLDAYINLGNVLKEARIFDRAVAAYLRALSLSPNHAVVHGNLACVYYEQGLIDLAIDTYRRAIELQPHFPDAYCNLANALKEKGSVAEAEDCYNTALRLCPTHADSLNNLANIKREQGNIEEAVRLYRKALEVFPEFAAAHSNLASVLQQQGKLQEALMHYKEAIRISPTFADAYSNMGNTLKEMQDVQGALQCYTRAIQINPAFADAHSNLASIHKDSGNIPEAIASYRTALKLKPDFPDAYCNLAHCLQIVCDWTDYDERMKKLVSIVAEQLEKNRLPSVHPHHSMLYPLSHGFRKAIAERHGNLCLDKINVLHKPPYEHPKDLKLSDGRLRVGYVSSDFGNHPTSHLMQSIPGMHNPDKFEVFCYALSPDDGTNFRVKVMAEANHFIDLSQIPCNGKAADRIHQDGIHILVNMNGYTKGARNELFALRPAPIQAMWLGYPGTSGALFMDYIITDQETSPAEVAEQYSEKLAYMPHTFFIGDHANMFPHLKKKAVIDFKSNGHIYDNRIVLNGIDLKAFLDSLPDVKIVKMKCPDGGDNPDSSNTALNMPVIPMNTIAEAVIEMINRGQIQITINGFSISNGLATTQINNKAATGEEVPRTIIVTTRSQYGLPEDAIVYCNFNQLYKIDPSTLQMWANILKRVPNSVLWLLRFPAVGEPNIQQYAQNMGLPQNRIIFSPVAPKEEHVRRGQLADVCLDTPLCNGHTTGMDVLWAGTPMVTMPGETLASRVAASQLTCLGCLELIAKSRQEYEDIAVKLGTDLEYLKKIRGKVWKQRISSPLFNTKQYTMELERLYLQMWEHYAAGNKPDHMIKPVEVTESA

binding, binds:
B1
B2
B3
B4
B5
B6
B7
